# Experimental data from article PMC11721573.
# By UniProt entry, the sequences of proteins in these tests, tags left out. Where a name states a change or a piece, a line headed by the entry shows the natural chain unless it says otherwise.
# UniProt P09022: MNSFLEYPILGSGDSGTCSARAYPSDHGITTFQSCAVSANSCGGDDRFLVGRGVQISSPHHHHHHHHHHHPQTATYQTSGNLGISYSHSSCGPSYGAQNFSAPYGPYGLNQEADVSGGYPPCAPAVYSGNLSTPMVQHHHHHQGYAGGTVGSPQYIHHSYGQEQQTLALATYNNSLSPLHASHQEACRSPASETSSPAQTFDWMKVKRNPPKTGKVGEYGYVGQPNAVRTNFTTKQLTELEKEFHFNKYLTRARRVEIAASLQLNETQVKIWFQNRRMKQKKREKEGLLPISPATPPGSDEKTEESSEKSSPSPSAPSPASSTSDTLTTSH
# UniProt P31245: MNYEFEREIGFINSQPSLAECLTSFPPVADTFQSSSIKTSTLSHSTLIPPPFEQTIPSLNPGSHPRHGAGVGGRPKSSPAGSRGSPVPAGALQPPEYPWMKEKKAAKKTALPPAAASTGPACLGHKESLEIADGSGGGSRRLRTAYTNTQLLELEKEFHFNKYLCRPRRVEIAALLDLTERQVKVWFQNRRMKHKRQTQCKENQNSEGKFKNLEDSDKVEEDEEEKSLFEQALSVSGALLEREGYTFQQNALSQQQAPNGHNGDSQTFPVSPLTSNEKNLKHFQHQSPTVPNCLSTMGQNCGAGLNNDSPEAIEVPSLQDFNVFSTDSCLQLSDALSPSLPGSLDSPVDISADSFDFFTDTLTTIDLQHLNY
# UniProt O60479: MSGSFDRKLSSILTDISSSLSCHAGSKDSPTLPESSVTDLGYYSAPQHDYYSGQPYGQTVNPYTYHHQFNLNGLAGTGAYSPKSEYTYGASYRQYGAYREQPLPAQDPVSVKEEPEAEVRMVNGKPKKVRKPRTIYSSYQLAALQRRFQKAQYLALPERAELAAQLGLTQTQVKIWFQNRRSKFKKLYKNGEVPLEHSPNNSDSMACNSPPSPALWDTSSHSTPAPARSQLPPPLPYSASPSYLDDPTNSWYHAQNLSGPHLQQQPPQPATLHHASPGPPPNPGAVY
# Read-outs that look alike come from different tables or passages of the source. No constants are given. Whether binding was seen depends on the method and setting. Binding seen in cells or lysates may run through a third protein. Binding calls can cover weak binding; strength is not graded here.
# B1: PBX1A (protein, UniProt P40424-1 1-430)
# chain: MDEQPRLMHSHAGVGMAGHPGLSQHLQDGAGGTEGEGGRKQDIGDILQQIMTITDQSLDEAQARKHALNCHRMKPALFNVLCEIKEKTVLSIRGAQEEEPTDPQLMRLDNMLLAEGVAGPEKGGGSAAAAAAAAASGGAGSDNSVEHSDYRAKLSQIRQIYHTELEKYEQACNEFTTHVMNLLREQSRTRPISPKEIERMVSIIHRKFSSIQMQLKQSTCEAVMILRSRFLDARRKRRNFNKQATEILNEYFYSHLSNPYPSEEAKEELAKKCGITVSQVSNWFGNKRIRYKKNIGKFQEEANIYAAKTAVTATNVSAHGSQANSPSTPNSAGSSSSFNMSNSGDLFMSVQSLNGDSYQGAQVGANVQSQVDTLRHVISQTGGYSDGLAASQMYSPQGISANGGWQDATTPSSVTSPTEGPGSVHSDTSN
# What was measured:
# HOXA1 (mouse) [1] = target: HOXA1 (mouse) (UniProt P09022); test: split reporter; BiFC with VN173 and VC155 moieties of Venus in transfected COS-7 cells, fixed 24 h after transfection, confocal microscopy; positive when the signal was at least 3 times that of the 3 control conditions
# HOXA1 (mouse) [2] = target: HOXA1 (mouse) (UniProt P09022); test: pull-down; glutathione coprecipitation: HEK293T cells co-transfected with plasmids for a GST-tagged and a FLAG-tagged protein; lysis in IPLS buffer (20 mM Tris-HCl pH 7.5, 120 mM NaCl, 0.5 mM EDTA, 0.5% NP40, 10% glycerol); overnight on glutathione-sepharose beads at 4 °C; Western blot with anti-FLAG and anti-GST
# HOXA1^ΔHD (mouse) [3] = target: HOXA1^ΔHD (mouse) (UniProt P09022); test: split reporter; BiFC with VN173 and VC155 moieties of Venus in transfected COS-7 cells, fixed 24 h after transfection, confocal microscopy; positive when the signal was at least 3 times that of the 3 control conditions
# HOXA2^ΔHD (mouse) [4] = target: HOXA2^ΔHD (mouse) (UniProt P31245); test: as above
# HOXA1^ΔHD (mouse) [5] = target: HOXA1^ΔHD (mouse) (UniProt P09022); test: as above; remark: listed apart in the source
# HOXA2^ΔHD (mouse) [6] = target: HOXA2^ΔHD (mouse) (UniProt P31245); test: as above; remark: listed apart in the source
Molecule,binding (HOXA1 (mouse) [1]),binding (HOXA1^ΔHD (mouse) [3]),other results
HOXA1^ΔHD (from UniProt P09022),binds,–,binding (HOXA1 (mouse) [2]): binds
DLX3 (from UniProt O60479 1-287),–,binds,binding (HOXA2^ΔHD (mouse) [4]): binds
HOXA2^ΔHD (from UniProt P31245),binds,binds,–
HOXA2 (from UniProt P31245 1-372),–,binds,–
B1,–,–,binding (HOXA1^ΔHD (mouse) [5]): binds; binding (HOXA2^ΔHD (mouse) [6]): binds
